Test results: article PMC4812329
These are yes or no findings as the source states them, for the method shown.

Amino acid sequences for entries named in this document (tags omitted). Residues count along the entry.
UniProt Q12809, residues 734-864: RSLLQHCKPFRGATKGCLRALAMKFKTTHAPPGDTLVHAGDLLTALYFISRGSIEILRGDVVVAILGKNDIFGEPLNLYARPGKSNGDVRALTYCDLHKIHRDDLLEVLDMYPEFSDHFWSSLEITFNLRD

Legend:
[1] = target: cyclic nucleotide-binding homology domain (CNBHD) of the hERG channel, residues R734 to D864 (human) (UniProt Q12809); assay: NMR 15N relaxation (correlation time from R2/R1); 15N-labelled CNBHD in NMR buffer, 298 K, 700 MHz; estimated correlation time about 12.2 ns; both purified
[2] = target: cyclic nucleotide-binding homology domain (CNBHD) of the hERG channel, residues R734 to D864 (human) (UniProt Q12809); assay: NMR titration; 1H-15N-HSQC spectra of 0.2 mM 15N-labeled CNBHD in the absence and presence of 0.5 mM peptide; both purified

Molecule | binding [1] | binding [2]
cyclic nucleotide-binding homology domain (CNBHD) of the hERG channel, residues R734 to D864 (from UniProt Q12809 734-864) (domain or fragment) | no binding | –
TFLDTIIRKFE [peptide derived from the cap domain helix of hERG (T13-E23)] | – | no binding (tested: 0.5 mM peptide)
